No constants are given. Whether binding was seen depends on the method and setting. Some binding calls cover weakened binding; strength is not graded here.
T1: Brn1 (S. cerevisiae) (UniProt P38170)
T1 sequence: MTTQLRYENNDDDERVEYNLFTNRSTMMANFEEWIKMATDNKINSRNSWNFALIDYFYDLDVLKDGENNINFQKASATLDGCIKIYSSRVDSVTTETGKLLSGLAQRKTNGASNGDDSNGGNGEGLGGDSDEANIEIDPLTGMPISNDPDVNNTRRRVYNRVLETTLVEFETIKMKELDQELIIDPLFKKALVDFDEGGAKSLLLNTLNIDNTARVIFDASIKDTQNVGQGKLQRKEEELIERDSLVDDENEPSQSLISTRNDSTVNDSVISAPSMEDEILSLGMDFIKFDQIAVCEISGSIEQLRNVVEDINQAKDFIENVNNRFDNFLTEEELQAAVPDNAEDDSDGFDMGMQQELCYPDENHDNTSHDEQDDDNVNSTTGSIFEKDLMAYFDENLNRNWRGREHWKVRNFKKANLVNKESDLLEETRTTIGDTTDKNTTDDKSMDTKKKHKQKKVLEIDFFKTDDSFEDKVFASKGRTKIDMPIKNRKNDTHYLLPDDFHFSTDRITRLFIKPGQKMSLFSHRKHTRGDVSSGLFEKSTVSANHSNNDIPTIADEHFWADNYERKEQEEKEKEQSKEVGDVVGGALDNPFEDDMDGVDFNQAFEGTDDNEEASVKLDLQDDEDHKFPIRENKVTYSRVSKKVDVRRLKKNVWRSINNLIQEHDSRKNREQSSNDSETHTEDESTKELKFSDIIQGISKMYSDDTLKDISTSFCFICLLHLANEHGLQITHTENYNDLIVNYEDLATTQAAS

T2: Brn1 K409D, R411D, K414D, K451D, K452D, K456D, K457D (S. cerevisiae) (UniProt P38170)
T2 sequence: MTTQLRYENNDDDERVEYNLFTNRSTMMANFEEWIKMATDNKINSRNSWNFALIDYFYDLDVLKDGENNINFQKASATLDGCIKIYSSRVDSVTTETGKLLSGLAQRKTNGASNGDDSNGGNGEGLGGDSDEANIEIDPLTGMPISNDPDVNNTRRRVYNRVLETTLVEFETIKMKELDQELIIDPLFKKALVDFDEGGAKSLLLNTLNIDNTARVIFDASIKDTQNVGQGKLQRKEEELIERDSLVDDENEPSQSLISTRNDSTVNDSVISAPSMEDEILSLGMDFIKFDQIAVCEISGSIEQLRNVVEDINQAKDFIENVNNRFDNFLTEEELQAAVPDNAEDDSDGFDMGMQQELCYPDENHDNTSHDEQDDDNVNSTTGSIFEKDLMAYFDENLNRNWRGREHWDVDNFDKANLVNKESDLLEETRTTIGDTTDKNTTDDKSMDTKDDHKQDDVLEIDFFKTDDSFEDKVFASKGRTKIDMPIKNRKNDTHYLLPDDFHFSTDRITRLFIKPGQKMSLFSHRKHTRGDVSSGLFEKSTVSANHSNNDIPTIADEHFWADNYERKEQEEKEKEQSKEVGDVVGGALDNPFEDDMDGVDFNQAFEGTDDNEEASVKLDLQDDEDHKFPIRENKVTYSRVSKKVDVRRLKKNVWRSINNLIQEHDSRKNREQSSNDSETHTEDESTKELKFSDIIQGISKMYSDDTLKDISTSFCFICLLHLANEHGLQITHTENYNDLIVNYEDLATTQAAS

T3: Smc4 (S. cerevisiae) (UniProt Q12267)
T3 sequence: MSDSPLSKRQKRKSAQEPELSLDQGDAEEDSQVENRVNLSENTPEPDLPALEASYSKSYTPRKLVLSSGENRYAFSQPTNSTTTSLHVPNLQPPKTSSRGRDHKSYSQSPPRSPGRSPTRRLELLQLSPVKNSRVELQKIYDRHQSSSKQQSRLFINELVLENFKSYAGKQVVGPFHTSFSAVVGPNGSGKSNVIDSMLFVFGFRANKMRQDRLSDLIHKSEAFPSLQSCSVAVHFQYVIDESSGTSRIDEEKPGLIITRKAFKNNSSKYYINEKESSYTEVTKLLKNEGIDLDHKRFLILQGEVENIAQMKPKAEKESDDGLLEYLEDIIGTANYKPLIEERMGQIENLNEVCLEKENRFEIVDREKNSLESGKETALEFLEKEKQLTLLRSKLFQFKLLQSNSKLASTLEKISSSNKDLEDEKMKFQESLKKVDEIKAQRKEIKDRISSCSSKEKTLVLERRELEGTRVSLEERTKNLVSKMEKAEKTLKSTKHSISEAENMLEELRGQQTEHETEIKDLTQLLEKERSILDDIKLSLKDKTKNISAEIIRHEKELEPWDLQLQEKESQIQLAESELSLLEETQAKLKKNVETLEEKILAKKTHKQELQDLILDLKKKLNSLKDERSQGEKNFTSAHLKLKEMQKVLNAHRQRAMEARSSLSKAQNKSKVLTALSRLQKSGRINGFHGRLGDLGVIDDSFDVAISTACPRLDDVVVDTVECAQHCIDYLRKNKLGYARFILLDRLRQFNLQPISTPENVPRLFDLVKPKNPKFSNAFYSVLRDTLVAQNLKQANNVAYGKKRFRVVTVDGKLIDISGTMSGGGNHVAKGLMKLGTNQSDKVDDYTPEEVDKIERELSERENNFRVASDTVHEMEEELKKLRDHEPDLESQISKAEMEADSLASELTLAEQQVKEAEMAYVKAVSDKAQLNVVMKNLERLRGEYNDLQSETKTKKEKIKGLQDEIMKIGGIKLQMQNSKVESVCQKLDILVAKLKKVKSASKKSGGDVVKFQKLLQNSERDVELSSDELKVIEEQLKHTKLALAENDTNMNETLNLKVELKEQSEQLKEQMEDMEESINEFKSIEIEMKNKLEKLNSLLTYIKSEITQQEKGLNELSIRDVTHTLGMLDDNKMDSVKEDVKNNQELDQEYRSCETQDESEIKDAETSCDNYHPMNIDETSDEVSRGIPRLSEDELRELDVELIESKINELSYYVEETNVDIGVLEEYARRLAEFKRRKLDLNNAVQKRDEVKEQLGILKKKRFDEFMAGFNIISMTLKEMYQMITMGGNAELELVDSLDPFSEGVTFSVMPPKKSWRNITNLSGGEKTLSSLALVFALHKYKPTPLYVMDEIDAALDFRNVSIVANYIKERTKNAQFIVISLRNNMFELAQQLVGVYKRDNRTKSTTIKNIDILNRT

T4: Smc4 (S. cerevisiae), Q12267
T4 chain: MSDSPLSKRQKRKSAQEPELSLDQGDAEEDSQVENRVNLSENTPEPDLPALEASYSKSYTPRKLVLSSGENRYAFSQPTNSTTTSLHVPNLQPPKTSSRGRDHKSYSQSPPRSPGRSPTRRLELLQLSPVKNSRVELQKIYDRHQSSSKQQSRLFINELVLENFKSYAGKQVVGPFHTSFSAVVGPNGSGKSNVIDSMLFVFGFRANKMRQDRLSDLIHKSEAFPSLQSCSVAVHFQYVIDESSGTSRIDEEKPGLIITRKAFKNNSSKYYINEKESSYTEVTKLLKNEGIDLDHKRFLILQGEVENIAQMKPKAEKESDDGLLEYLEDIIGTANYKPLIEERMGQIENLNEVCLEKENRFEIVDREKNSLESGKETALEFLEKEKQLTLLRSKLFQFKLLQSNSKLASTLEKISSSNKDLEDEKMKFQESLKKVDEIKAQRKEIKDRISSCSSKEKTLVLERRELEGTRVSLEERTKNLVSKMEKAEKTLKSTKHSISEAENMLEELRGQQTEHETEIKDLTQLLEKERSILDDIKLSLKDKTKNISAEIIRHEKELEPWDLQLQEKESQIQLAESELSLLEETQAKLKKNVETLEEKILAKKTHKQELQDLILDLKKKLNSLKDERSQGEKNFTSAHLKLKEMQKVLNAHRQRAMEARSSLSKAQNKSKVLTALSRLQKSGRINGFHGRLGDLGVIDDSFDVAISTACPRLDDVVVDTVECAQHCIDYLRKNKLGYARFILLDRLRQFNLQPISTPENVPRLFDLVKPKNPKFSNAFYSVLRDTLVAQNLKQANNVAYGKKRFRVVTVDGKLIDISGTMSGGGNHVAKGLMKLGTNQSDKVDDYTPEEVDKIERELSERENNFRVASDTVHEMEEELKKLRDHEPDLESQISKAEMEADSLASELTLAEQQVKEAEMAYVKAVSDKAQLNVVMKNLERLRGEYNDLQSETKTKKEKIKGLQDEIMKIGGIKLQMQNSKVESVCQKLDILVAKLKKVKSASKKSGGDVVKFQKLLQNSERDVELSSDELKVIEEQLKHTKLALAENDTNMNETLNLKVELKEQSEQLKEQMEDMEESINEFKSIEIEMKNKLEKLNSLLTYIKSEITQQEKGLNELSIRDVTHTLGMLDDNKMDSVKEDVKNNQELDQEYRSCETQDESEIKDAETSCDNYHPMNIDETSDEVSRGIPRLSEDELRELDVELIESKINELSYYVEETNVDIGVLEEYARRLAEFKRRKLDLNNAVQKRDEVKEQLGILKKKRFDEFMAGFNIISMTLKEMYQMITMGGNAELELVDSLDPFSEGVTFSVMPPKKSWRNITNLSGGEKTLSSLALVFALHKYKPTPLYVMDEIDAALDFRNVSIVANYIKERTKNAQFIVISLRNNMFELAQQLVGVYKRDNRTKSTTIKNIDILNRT


Legend:
Assay in all cases: tandem affinity chromatography + SEC; subunits co-overexpressed in budding yeast; complexes purified from interphase cell extracts by the His12 tag on Brn1 and the triple StrepII tag on Smc4, followed by a gel filtration step
Brn1 (S. cerevisiae) = target: T1, Brn1 (S. cerevisiae)
[1] = target: T2, Brn1 K409D, R411D, K414D, K451D, K452D, K456D, K457D (S. cerevisiae)
Smc4 (S. cerevisiae) = target: T3, Smc4 (S. cerevisiae)
[2] = target: T4, Smc4 (S. cerevisiae), Q12267; conditions: remark: other sources report otherwise

binding (Brn1 (S. cerevisiae))	binding [1]	binding (Smc4 (S. cerevisiae))	binding [2]	Binder
binds	binds	binds	–	Smc2 (protein, UniProt P38989 1-1170) MKVEELIIDGFKSYATRTVITDWDPQFNAITGLNGSGKSNILDAICFVLGIASMSTVRASSLQDLIYKRGQAGVTKASVTIVFDNTDKSNSPIGFTNSPQISVTRQVVLGGTSKYLINGHRAPQQSVLQLFQSVQLNINNPNFLIMQGKITKVLNMKPSEILSLIEEAAGTKMFEDRREKAERTMSKKETKLQENRTLLTEEIEPKLEKLRNEKRMFLEFQSTQTDLEKTERIVVSYEYYNIKHKHTSIRETLENGETRMKMLNEFVKKTSEEIDSLNEDVEEIKLQKEKELHKEGTISKLENKENGLLNEISRLKTSLSIKVENLNDTTEKSKALESEIASSSAKLIEKKSAYANTEKDYKMVQEQLSKQRDLYKRKEELVSTLTTGISSTGAADGGYNAQLAKAKTELNEVSLAIKKSSMKMELLKKELLTIEPKLKEATKDNELNVKHVKQCQETCDKLRARLVEYGFDPSRIKDLKQREDKLKSHYYQTCKNSEYLKRRVTNLEFNYTKPYPNFEASFVHGVVGQLFQIDNDNIRYATALQTCAGGRLFNVVVQDSQTATQLLERGRLRKRVTIIPLDKIYTRPISSQVLDLAKKIAPGKVELAINLIRFDESITKAMEFIFGNSLICEDPETAKKITFHPKIRARSITLQGDVYDPEGTLSGGSRNTSESLLVDIQKYNQIQKQIETIQADLNHVTEELQTQYATSQKTKTIQSDLNLSLHKLDLAKRNLDANPSSQIIARNEEILRDIGECENEIKTKQMSLKKCQEEVSTIEKDMKEYDSDKGSKLNELKKELKLLAKELEEQESESERKYDLFQNLELETEQLSSELDSNKTLLHNHLKSIESLKLENSDLEGKIRGVEDDLVTVQTELNEEKKRLMDIDDELNELETLIKKKQDEKKSSELELQKLVHDLNKYKSNTNNMEKIIEDLRQKHEFLEDFDLVRNIVKQNEGIDLDTYRERSKQLNEKFQELRKKVNPNIMNMIENVEKKEAALKTMIKTIEKDKMKIQETISKLNEYKRETLVKTWEKVTLDFGNIFADLLPNSFAKLVPCEGKDVTQGLEVKVKLGNIWKESLIELSGGQRSLIALSLIMALLQFRPAPMYILDEVDAALDLSHTQNIGHLIKTRFKGSQFIVVSLKEGMFANANRVFRTRFQDGTSVVSIM
–	–	–	binds	Ycg1, Q06680 1-1035 (protein) MQDPDGIDINTKIFNSVAEVFQKAQGSYAGHRKHIAVLKKIQSKAVEQGYEDAFNFWFDKLVTKILPLKKNEIIGDRIVKLVAAFIASLERELILAKKQNYKLTNDEEGIFSRFVDQFIRHVLRGVESPDKNVRFRVLQLLAVIMDNIGEIDESLFNLLILSLNKRIYDREPTVRIQAVFCLTKFQDEEQTEHLTELSDNEENFEATRTLVASIQNDPSAEVRRAAMLNLINDNNTRPYILERARDVNIVNRRLVYSRILKSMGRKCFDDIEPHIFDQLIEWGLEDRELSVRNACKRLIAHDWLNALDGDLIELLEKLDVSRSSVCVKAIEALFQSRPDILSKIKFPESIWKDFTVEIAFLFRAIYLYCLDNNITEMLEENFPEASKLSEHLNHYILLRYHHNDISNDSQSHFDYNTLEFIIEQLSIAAERYDYSDEVGRRSMLTVVRNMLALTTLSEPLIKIGIRVMKSLSINEKDFVTMAIEIINDIRDDDIEKQEQEEKIKSKKINRRNETSVDEEDENGTHNDEVNEDEEDDNISSFHSAVENLVQGNGNVSESDIINNLPPEKEASSATIVLCLTRSSYMLELVNTPLTENILIASLMDTLITPAVRNTAPNIRELGVKNLGLCCLLDVKLAIDNMYILGMCVSKGNASLKYIALQVIVDIFSVHGNTVVDGEGKVDSISLHKIFYKVLKNNGLPECQVIAAEGLCKLFLADVFTDDDLFETLVLSYFSPINSSNEALVQAFAFCIPVYCFSHPAHQQRMSRTAADILLRLCVLWDDLQSSVIPEVDREAMLKPNIIFQQLLFWTDPRNLVNQTGSTKKDTVQLTFLIDVLKIYAQIEKKEIKKMIITNINAIFLSSEQDYSTLKELLEYSDDIAENDNLDNVSKNALDKLRNNLNSLIEEINERSETQTKDENNTANDQYSSILGNSFNKSSNDTIEHAADITDGNNTELTKTTVNISAVDNTTEQSNSRKRTRSEAEQIDTSKNLENMSIQDTSTVAKNVSFVLPDEKSDAMSIDEEDKDSESFSEVC

From paper PMC5709735, “Real‐time detection of condensin‐driven DNA compaction reveals a multistep binding mechanism” (The EMBO Journal, 2017)
